Reference: PubChem BioAssay AID493014 (National Center for Advancing Translational Sciences (NCATS), 2011)
Some of the results follow. These are further read-outs of the screen, such as a control signal, another cell line or another target. No call is given for them. Most of these compounds were active or inconclusive in the main read-out, so they are no random draw. The note in brackets gives the kind of curve behind each potency; many fits are weak.

Assay: qHTS Assay to Find Inhibitors of Chronic Active B-Cell Receptor Signaling
Details: ABC-DLBCL IkBa-CBG/CBR reporter, luminescence ratio (green luciferase fused to IkBa over red control in TMD8 lymphoma cells), 4 h
Outline: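 TMD8 human ABC-DLBCL cells with doxycycline-inducible IκBα–green luciferase fusion and unfused red luciferase, in 0.5% FBS medium; compounds up to 46 uM, 4 h at 37C. Green/red luminescence ratio, filter-overlap corrected, fitted to concentration-response curves.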

[1] = measured here: CBR red luminescence, cell number
[2] = measured here: IkBa-CBG green luminescence

Row | SMILES | AC50 [1] | AC50 [2]
1 | Cc1cccc(OCc2nnc(SC(C)C(=O)O)n2Cc2ccccc2)c1 (configuration not stated) | 3.98 µM [rising, single point] | –
2 | COC(=O)c1cc2ccccc2c(-c2c(OC)c(C(=O)OC)cc3ccccc23)c1OC | 6.31 µM [falling, full curve] | 10 µM [rising, partial curve, poor fit]
3 | CC(=O)c1c(C(C)=O)c(C)n(Cc2ccc(Cl)cc2)c1C | 13 µM [falling, single point] | –
4 | Cc1cc(C)cc(S(=O)(=O)c2cnc3ccccc3n2)c1 | 5.62 µM [falling, full curve, poor fit] | –
5 | Cn1nc([N+](=O)[O-])c(C(C#N)c2ccccn2)c(Cl)c1=O (configuration not stated) | 11.2 µM [falling, partial curve, poor fit] | –
6 | C/C(N)=C(/C#N)C(=O)COC(=O)c1oc2ccccc2c1COC(C)C | 20 µM [falling, single point] | –
7 | CCN(CC)C(=O)CSc1nc(N)c(C#N)c(-c2cccs2)c1C#N | 1.64 µM [falling, full curve, poor fit] | 2.91 µM [rising, full curve]
8 | COc1cc(NC(=O)[C@H](C)NC(=O)N2CCn3c2nc2ccccc23)cc(OC)c1 | 7.08 µM [falling, partial curve] | –
9 | O=C(COC(=O)c1cccc(O)c1)Nc1nnc(-c2ccccc2)o1 | 18.4 µM [falling, single point] | –
10 | Cc1ccc(/C=N/NC(=O)Cc2c[nH]c3ccccc23)c(C)c1 | 31.6 µM [falling, single point] | –
11 | CC(=O)Nc1sc(C)c(C)c1CN1CCN(S(=O)(=O)c2ccccc2)CC1 | 20.6 µM [falling, partial curve, poor fit] | –
12 | N#Cc1ccsc1NC(=O)CSc1nnc(-c2ccccc2)o1 | 9.2 µM [falling, partial curve] | –
13 | CCCCNS(=O)(=O)c1ccc(NS(=O)(=O)c2c(C)cc(C)cc2C)cc1 | 18.4 µM [falling, single point] | –
14 | O=c1c2[nH]c3ccc(F)cc3c2ncn1CCC1=CCCCC1 | 0.0891 µM [rising, full curve, poor fit] | –
15 | CN(Cc1nc2ccccc2c(=O)[nH]1)C(=O)COc1ccccc1Cc1ccccc1 | 18.4 µM [falling, partial curve] | –
16 | NC(=O)c1ccsc1NC(=O)c1ccc(S(=O)(=O)N2CCCc3ccccc32)cc1 | 29.1 µM [falling, single point] | –
17 | COC(=O)c1c(C)oc2cc(Br)c(OCC(=O)C(C)(C)C)cc12 | 15.8 µM [falling, partial curve, poor fit] | –
18 | CC(=O)Nc1sc(C)c(C)c1C(=O)OCC(=O)N(Cc1ccccc1)C(C)C | 0.0731 µM [rising, full curve, poor fit] | –
19 | O=c1ncn(-c2ccccc2C(F)(F)F)c2ncccc12 | 4.61 µM [rising, full curve, poor fit] | –
20 | COc1cc(CNc2ccc3[nH]c(=O)[nH]c3c2)ccc1OCc1ccc(C)cc1 | 14.1 µM [rising, partial curve, poor fit] | –

Row | SMILES | AC50 [1] | AC50 [2]
21 | O=C(NC(Cc1c[nH]c2ccccc12)C(=O)O)c1ccc(Br)cc1 (configuration not stated) | 0.631 µM [falling, partial curve, poor fit] | –
22 | Cn1c(CN2CCOCC2)nc2cc(NC(=O)c3ccc(F)cc3)ccc21 | 18.4 µM [falling, partial curve] | –
23 | COC(=O)c1[nH]c2c(c1C)C(=O)CC(c1ccc(OC)c(OC)c1)C2 (configuration not stated) | 6.31 µM [rising, single point] | –
24 | COc1ccc(NC(=O)CCN2C(=O)/C(=C/c3ccc4c(c3)OCO4)SC2=S)cc1 | 20 µM [falling, single point] | –
25 | CCOC(=O)/C(=C\c1ccc(OC(F)F)cc1)C1=Nn2c(nnc2-c2ccc(Cl)cc2)SC1 | 10.3 µM [falling, partial curve] | –
26 | COc1ccc(CC(=O)c2ccc(OC3OC(CO)C(O)C(O)C3O)cc2O)cc1 (configuration not stated) | 3.98 µM [rising, single point] | –
27 | COc1cc(OC)cc(C(=O)Nc2ccc(N3CCOCC3)cc2N2CCOCC2)c1 | 29.1 µM [falling, partial curve, poor fit] | –
28 | N#CCc1nc2ccccc2c(=O)[nH]1 | 35.5 µM [falling, single point] | –
29 | CCOC(=O)c1c(CCl)nc2ccccc2c1-c1ccccc1 | 3.55 µM [falling, partial curve, poor fit] | –
30 | COc1ccccc1OCCC(=O)OCC(=O)c1[nH]c(C)c(C(C)=O)c1C | 22.4 µM [falling, single point] | –
31 | COC(C/C=C/C(=O)COCc1ccccc1)OC | 12.6 µM [falling, partial curve, poor fit] | –
32 | CCOc1cc(CNC2CCCC2)ccc1OCc1ccccc1Cl | 25.1 µM [falling, single point] | –
33 | CCOC(=O)[C@H]1[C@H]2COc3ccccc3[C@@H]2N2C(=O)c3cc(F)c(F)cc3NC(=O)[C@@]12C | 18.4 µM [falling, single point] | –
34 | O=C(Nc1nc2c(Cl)cccc2s1)C1CC1 | 5.01 µM [falling, partial curve] | –
35 | CCC(=O)OCCNc1cc(Sc2nc3ccccc3[nH]2)c2nonc2c1[N+](=O)[O-] | 25.9 µM [falling, single point] | –
36 | Cc1cccc(-c2nc(CS(=O)CC(=O)NCCc3ccc(Cl)cc3)c(C)o2)c1 (configuration not stated) | 12.6 µM [falling, partial curve, poor fit] | –
37 | CSc1nnc(NC(=O)c2nc(S(=O)(=O)Cc3ccc(C)cc3)ncc2Cl)s1 | 20 µM [falling, partial curve, poor fit] | –
38 | CCOC(=O)Cc1csc(NC(=O)/C=C\c2ccccc2Cl)n1 | 2.82 µM [falling, full curve] | –
39 | COC(=O)c1cccc(NC(=S)N2CCN(C)CC2)c1 | 11.2 µM [rising, partial curve, poor fit] | –
40 | CCCC(=O)C1=C(O)C(C(=O)OC)C(C)(C)CC1=Nc1ccc(C)cc1 (configuration not stated) | 35.5 µM [falling, single point] | –

Full records, quoted from the list:
Cc1cc(C)cc(S(=O)(=O)c2cnc3ccccc3n2)c1 reads AC50 [1]: 5.62 µM [falling, full curve, poor fit]
Cc1cccc(-c2nc(CS(=O)CC(=O)NCCc3ccc(Cl)cc3)c(C)o2)c1 (configuration not stated) reads AC50 [1]: 12.6 µM [falling, partial curve, poor fit]
N#CCc1nc2ccccc2c(=O)[nH]1 reads AC50 [1]: 35.5 µM [falling, single point]
